Source: patent US20050112068A1 (priority 2003, published 2005)
At least one compound was matched to its structure with a doubt left.

Assay: Estradiol destruction in acetonitrile/sodium hypochlorite solution (HPLC)
Format: physicochemical
Settings: earliest time point (~5 sec); 2.5 mL acetonitrile + 7.5 mL 6-9 wt % sodium hypochlorite solution

C[C@]12CC[C@@H]3c4ccc(O)cc4CC[C@H]3[C@@H]1CC[C@@H]2O [estradiol]
estradiol destroyed: from substantially to completely destroyed
